Article doi:10.1101/2022.11.10.516020
Results are given in words; binding and its absence hold for the method and conditions named. In cells and extracts the contact can be indirect. A result given as binding can be weak or reduced; the word gives no strength.

Biological target: cofilin (mouse (endogenous in retina))
Assay: co-IP

B1: retinal specific isoform of RPGR (retinitis pigmentosa GTPase regulator) (protein, UniProt Q9R0X5-5 1-1305)
chain: MAESESLVPDTGAVFTFGKTKFAENIPSKFWFKNDIPICLSCGDEHTAIVTGNNKLYMFGSNNWGQLGLGSKAAIIKPTCIKALKPEKVKLAACGRNHTLVSTDTGGVYAAGGNNEGQLGLGDTDDRDTFHQIVFFTPADTIKQLSAGANTSAALTEDGKLFMWGDNSEGQIGLEDKSNVCIPHEVTVGKPISWISCGYYHSAFVTMDGELYTFGEPENGKLGLPNELLMNHRSPQRVLGIPERVIQVACGGGHTVVLTEKVVYAFGLGQFGQLGLGTFLFETSEPKIIERIKDQKICHISCGENHTALMTELGLLYTFGDGRHGKLGLGMENFTNQFFPTLCSNFLRFAVQLIACGGCHMLVFATPRLGTIDEPKFEDVYEPYISTGSFSINDLSPRSSLNRSLSARLRRRERERPPCSASMVGTLPPLEGTSASTSAYFYPSSPPFHLSVNNYPEKSPSESMEPLDSDYFEDKMNKDTETENSSAVDSENFGETNDILNMTHMMTTSSNEKLLDFSPIQKQQNQDTFEKVMESTPCTENEDSYEYEEMSKIKEVTVYKQYLAKGIYMIRPAEILEAFSDEEVGNGLDQVEEPRVFTDGKGLQSKQVGKESDEEIVSEKKTEVMEVADVKKIRESEENSKSDSLFDDLPDKTMNSESEDNKDIAEERRSSEQNMTFDSETELVEEPDSYMECERHSEQDSAEELEQPKLVEYSSEEKDEKDEKDDDEVETENLWYDRNCTEQETENVFRATRFFPKFDLKHDHLSGIPEEQEGPEDSEGNVVVEQVVQAQKENLEFEGDRKEAKAEAPSDVITEKEVSESERESGGEREDRSEGDGDQICEKVSLETEHLQRAQGKQERKKGKDKRARCILDMKEREEDKGWEKGSEGGDKMKRDEGNQEKRKKEMEERDAGDERSEEEEGEEEEPEEGEKEEGGEEEEGTSEDQSREDEGDRQEKEGRREGKGRQEDGREGWKEGEEQEQEEEIEEGEEEEREGEEEGGEEEGEGEGEREEEGEGEEEGEGEEEGEGEEEGEGEEEGEGEEEGEGEEEGEGEEEGEGEEDGEGEEDGEGEEEGEGEEEGEREEDGEGEEDGEGEEEGEGEEEGEGEEEGEGEEEGEGEGEEEGEGEWEGEEEGEGEEEGEGEEEGEGEEEGEGEEEGEGEEEGGEDDEGEELEKKKGDITEEEEEEEEGQEGDEREREEHGSCEDDVEEDKTYDREEGEYKKAIGKVADNESQEDRKQSPKVSKINGSMKYGRHGTYSEKPITNLGKTQPSKMPMESRQLVENGLLGSERFWSDVLPLYLELK
modifications: polyglutamylated (detected using GT335 antibody)
For B1, the binding was “binds”.
